Source: patent US20220153746A1, “NITROGEN OXIDE-DONATING PDE-5 AND/OR PDE-6 INHIBITOR COMPOUNDS, AND USES THEREOF” (ILDONG PHARMACEUTICAL CO., LTD., priority 2020, published 2022)
Values joined by “and” are separate entries in the source; they are usually repeats but may differ in a detail not shown here. Identical values can stand only once. The source gives many values for each of these; only a part stands here.

Experiment: TD Phase (Groups 1 and 3): plasma and ocular tissue concentrations and pharmacokinetics of Compound 18 and its metabolite Compound 4 after once daily ocular instillation of Compound 18 nanosuspension for 7 days
Format: in vivo, New Zealand white rabbits
Conditions: individual animals; for Final Compound 18 Trabecular Meshwork Conc.: BQL set to 0; for Compound 18 Sclera/Choroid Homogenate Conc.: homogenate dilution factor 8; for Compound 18 Trahecular Meshwork Homogenate Conc.: homogenate dilution factor 20
Excerpt: This example illustrates the procedures and results for the levels of Compound 18 and its metabolite Compound 4 in plasma and ocular tissues of normotensive rabbits following ocular instillation of Compound 18 once daily for 7 consecutive days.
Twenty five (25) male New Zealand white rabbits were divided into 5 groups of varying amounts of animals per group.
The Test article, Compound 18 was formulated as a 2% nanosuspension in DI water containing 0.2% PS80 (polyoxyethylenesorbitan, monooleate (Tween 80)) and 0.4% HPMC (hydroxypropylmethylcellulose) at pH 6.77. Referred to herein as “Compound 18 nanosuspension.”
The study consisted of three groups (Groups 1-3) of 19 male rabbits (NZW) that underwent once daily morning ocular installation (1 eyedrop) for 7 consecutive days (Day 0-6). Groups 4-5 each consisted of 3 male rabbits (NZW) that were not dosed.
Blood samples (1 mL) were collected from the jugular vein at the intervals set out below for each group. The samples were then inverted several times following collection and held on wet ice until centrifuged. Samples were centrifuged within 60 minutes of collection under refrigeration (set at 5° C. for 10 minutes at 2000 g.
Group 1 (Pilot Study, terminal blood collection): blood was collected from 3 animals at 1 hour post day 7 dose of Compound 18 nanosuspension.
Group 3 (TD Phase, terminal blood collection): blood was collected from 3 animals at 0.5 hour, 3 animals at 2 hours, 3 animals at 4 hours, and 3 animals at 8 hours post day 7 dose of Compound 18 nanosuspension.
(§1) Group 1 (Pilot Study): 3 animals were terminated at 1 hour post Day 7 dose of Compound 18 nanosuspension. Following blood collection and termination, ocular tissues (aqueous humor, vitreous humor, cornea, iris/ciliary body, lens, optic nerve, retina, sclera/choroid, and trabecular meshwork) were collected from each animal and the tissue weights were recorded. Note: sclera and choroid were collected together. Iris and ciliary body were collected together.
as §1, with “3 (TD Phase):” for “1 (Pilot Study):”, “0.5 hour, 3 animals at 2 hours, 3 animals at 4 hours, and 3 animals at 8 hours” for “1 hour”
Plasma and tissue samples from treated animals (Groups 1-3) were analyzed for Compound 18 and its metabolite Compound 4 concentrations by LC-MS/MS.
Pharmacokinetic analysis was conducted using WinNonlin Version 6.2.1 (Pharsight, Mountain View, Calif.), operating as a validated software system. Noncompartmental analysis was conducted using the extravascular administration model for ocular instillation dosing.
The peak plasma and ocular tissue concentration, time to achieve peak plasma and ocular tissue concentration, half-life, and area under the plasma and ocular tissue concentration-time curve (Cmax, Tmax, T1/2, and AUC) were calculated from the TD phase combined with the pilot study mean animal plasma and ocular tissue concentrations for each sampling time/dose group for Compound 18 and its metabolite Compound 4.
BA Assay: Quantitation Range 0.05 to 100 ng/mL for Compound 18, 0.15 to 100 ng/mL for Compound 4.
3. Pipet 50 μL of each type of pre-spiked ocular tissue samples (AH/VH) for QC samples, 50 μL of incurred aqueous humor, and vitreous humor sample (if applicable) into a 96 well plate.
Ocular Tissues Homogenate Preparation: Incurred rabbit ocular tissues were weighed in Genogrinder tubes (plastic tubes with small beads) at the time of removal from the animal and stored frozen (<−70° C.) until analysis. The rabbit incurred ocular tissues were thawed on wet ice. […]

**Q.** What does the source list for `CCCc1nn(C)c2c(=O)[nH]c(-c3cc(S(=O)(=O)N4CC(CCCO[N+](=O)[O-])C4)ccc3OCC)nc12` [Compound 18, 3-(1-((4-ethoxy-3-(1-methyl-7-oxo-3-propyl-6,7-dihydro-1H-pyrazolo[4,3-d]pyrimidin-5-yl)phenyl)sulfonyl)azetidin-3-yl)propyl nitrate]?
**A.** Final Compound 18 Sclera/Choroid Conc. (Group 1, 1 h): 44.6 ng/g and 60.1 ng/g; Final Compound 18 Trabecular Meshwork Conc. (Group 1, 1 h): 0 ng/g and 15.7 ng/g and 7.32 ng/g; Compound 18 Sclera/Choroid Homogenate Conc. (Group 1, 1 h): 5.57 ng/mL and 7.51 ng/mL; Compound 18 Trahecular Meshwork Homogenate Conc. (Group 1, 1 h): 0.785 ng/mL and 0.366 ng/mL; Final Compound 18 Trabecular Meshwork Conc. (Group 3, 0.5 h): 2.92 ng/g and 0 ng/g and 18.1 ng/g; Compound 18 Trahecular Meshwork Homogenate Conc. (Group 3, 0.5 h): 0.146 ng/mL and 0.907 ng/mL; Final Compound 18 Sclera/Choroid Conc. (Group 3, 2 h): 31.4 ng/g and 674 ng/g and 31.9 ng/g; Final Compound 18 Trabecular Meshwork Conc. (Group 3, 2 h): 1.78 ng/g and 3.58 ng/g and 0 ng/g; Compound 18 Sclera/Choroid Homogenate Conc. (Group 3, 2 h): 3.93 ng/mL and 84.2 ng/mL and 3.99 ng/mL; Compound 18 Trahecular Meshwork Homogenate Conc. (Group 3, 2 h): 0.0890 ng/mL and 0.179 ng/mL; Final Compound 18 Sclera/Choroid Conc. (Group 3, 4 h): 63.4 ng/g and 20.6 ng/g and 640 ng/g; Final Compound 18 Trabecular Meshwork Conc. (Group 3, 4 h): 4.62 ng/g and 3.24 ng/g and 8.70 ng/g; Compound 18 Sclera/Choroid Homogenate Conc. (Group 3, 4 h): 7.93 ng/mL and 2.57 ng/mL and 80.0 ng/mL; Compound 18 Trahecular Meshwork Homogenate Conc. (Group 3, 4 h): 0.231 ng/mL and 0.162 ng/mL and 0.435 ng/mL; Final Compound 18 Sclera/Choroid Conc. (Group 3, 8 h): 16.2 ng/g and 31.8 ng/g and 32.5 ng/g; Final Compound 18 Trabecular Meshwork Conc. (Group 3, 8 h): 0 ng/g and 4.74 ng/g and 1.06 ng/g; Compound 18 Sclera/Choroid Homogenate Conc. (Group 3, 8 h): 2.02 ng/mL and 3.97 ng/mL and 4.06 ng/mL; Compound 18 Trahecular Meshwork Homogenate Conc. (Group 3, 8 h): 0.237 ng/mL and 0.0532 ng/mL
